Test results published in the supplement of paper PMC12823440, “Inhibitors supercharge kinase turnover through native proteolytic circuits” (Nature, 2025).
Where a name gives a salt, the structure may show the parent alone. The list shows a part of the results. Hit calls seldom repeat between salt and free forms of one compound.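 Kinases, fused to nanoluciferase, were expressed in K562 cells; luminescence was measured every 4 h from 2 to 18 h as percent of control (DMSO = 100%, positive control = 0%). A time point is decreased if signal falls significantly (2 sigma). Hits were called by the authors by a rule that is not shown; the count of time points alone does not decide it.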

The chains behind the UniProt entries cited, without tags or fusion partners.
UniProt Q15118, whole entry, looked up: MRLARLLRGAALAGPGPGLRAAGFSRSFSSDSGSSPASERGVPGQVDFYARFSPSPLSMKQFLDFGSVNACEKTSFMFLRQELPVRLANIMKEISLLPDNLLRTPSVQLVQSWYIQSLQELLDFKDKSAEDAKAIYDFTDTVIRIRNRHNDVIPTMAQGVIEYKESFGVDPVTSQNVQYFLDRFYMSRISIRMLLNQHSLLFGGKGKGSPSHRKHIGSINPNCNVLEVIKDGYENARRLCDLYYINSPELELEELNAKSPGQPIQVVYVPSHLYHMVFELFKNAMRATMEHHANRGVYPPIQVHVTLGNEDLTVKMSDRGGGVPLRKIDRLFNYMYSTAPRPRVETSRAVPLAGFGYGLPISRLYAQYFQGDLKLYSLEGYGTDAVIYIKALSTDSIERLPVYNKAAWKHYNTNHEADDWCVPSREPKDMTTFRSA

These molecules were tested against PDK1 (UniProt Q15118) (assay: number of time points (of 5) at which kinase-Nluc abundance scored as decreased, DMSO-normalised (count); higher = more persistent destabilization). Details: K562; 2-18 h.

Row | Compound | number of time points
1 | Cc1cc(=O)oc2c(C=O)c(O)ccc12 (10 µM) | 0
2 | Nc1nc(F)nc2c1ncn2[C@@H]1O[C@H](CO)[C@@H](O)[C@@H]1O [Fludarabine] (10 µM) | 0
3 | CC(C)(C)c1cc(O)ccc1O (10 µM) | 0
4 | COc1ccc(Cl)c(Nc2nc3ccccc3nc2NS(=O)(=O)c2cccc(NC(=O)C(C)(C)N)c2)c1 [Pilaralisib] (10 µM) | 0
5 | Cc1ccc(CNc2ncnc3ccc(-c4ccc(CO)o4)cc23)o1 (10 µM) | 0
6 | C=CC(=O)Nc1cccc(Nc2nc(Nc3ccc(N4CCN(C(C)=O)CC4)cc3OC)ncc2C(F)(F)F)c1 [Rociletinib] (10 µM) | 0
7 | Nc1ncnc2c1c(-c1cccc(OCc3ccccc3)c1)cn2C1CC(CN2CCC2)C1 (stereo not drawn) (2.5 µM) | 0
8 | Oc1cc(O)c2cc(O)c(-c3cc(O)c(O)c(O)c3)[o+]c2c1 [Delphinidin (chloride)] (10 µM) | 0
9 | CCCS(=O)(=O)Nc1ccc(F)c(C(=O)c2c[nH]c3ncc(-c4ccc(Cl)cc4)cc23)c1F [Vemurafenib] (10 µM) | 0
10 | COCCNc1nc2ccc(C#CC3(O)CCCCC3)cc2n1-c1ccnc(N)n1 (10 µM) | 0
11 | CCC(C)N1c2ccccc2C(=O)N(C)c2cnc(Nc3ccc(C(=O)N4CCC(N5CCN(C)CC5)CC4)cc3OC)nc21 (stereo not drawn) (2.5 µM) | 0
12 | Cc1cc(CN2CCN(c3c(Br)cnc4nc(-c5ccc(N6CCN(C)CC6)cc5)[nH]c34)CC2)no1 (2.5 µM) | 0
13 | O=C(CSC1=NCCN1)NC1CCCCCC1 [ICCB-19 (hydrochloride)] (2.5 µM) | 0
14 | FC(F)(F)c1ccc(CNc2ccc(Cc3c[nH]c4ncccc34)cn2)cc1 (10 µM) | 0
15 | c1ccc(-c2[nH]ncc2-c2ccnc3ccccc23)nc1 (10 µM) | 0
16 | CC#CC(=O)N1CC[C@@H](n2c(=O)n(-c3ccc(Oc4ccccc4)cc3)c3c(N)ncnc32)C1 [Tirabrutinib (hydrochloride)] (10 µM) | 0
17 | CC1=C(C(=O)O)N2C(=O)[C@@H](NC(=O)[C@H](N)C3=CCC=CC3)[C@H]2SC1 [Cephradine] (10 µM) | 0
18 | Cn1cc(-c2ccc3nnc(Sc4ccc5ncccc5c4)n3n2)cn1 (10 µM) | 0
19 | CC(=O)c1c(C)cc2cccc(O)c2c1O [Nepodin] (10 µM) | 0

Two records picked at random from those above:
Row | Compound | number of time points
19 | CC(=O)c1c(C)cc2cccc(O)c2c1O [Nepodin] (10 µM) | 0
17 | CC1=C(C(=O)O)N2C(=O)[C@@H](NC(=O)[C@H](N)C3=CCC=CC3)[C@H]2SC1 [Cephradine] (10 µM) | 0

The results go on:

Row | Compound | number of time points
20 | NCCNS(=O)(=O)c1cccc2c(Cl)cccc12 [A-3 (hydrochloride)] (10 µM) | 0
21 | N#Cc1c(C2CCNCC2)cc(-c2c(O)cccc2OCC2CC2)nc1N [ACHP (Hydrochloride)] (10 µM) | 0
22 | C[C@@H]1COCCN1c1cc(C2([S@@](C)(=N)=O)CC2)nc(-c2ccnc3[nH]ccc23)n1 [(S)-Ceralasertib] (10 µM) | 0
23 | NC(=O)c1nc(Nc2ccccc2)sc1NC(=O)C1CCCCC1 (10 µM) | 0
24 | Cc1cc(Nc2ncnc3ccc(NC4=NC(C)(C)CO4)cc23)ccc1Oc1ccn2ncnc2c1 [Tucatinib (hemiethanolate)] (2.5 µM) | 0
25 | Cc1ccc(C(=O)Nc2ccc(Oc3cc4cnn(C)c4cc3-c3cn[nH]c3)c(F)c2)c(=O)n1-c1ccc(F)cc1 [Merestinib dihydrochloride] (2.5 µM) | 0
26 | O=C1Nc2ccc(C(=O)c3ccco3)cc2C1=Cc1cc(Cl)c(O)c(Cl)c1 (2.5 µM) | 0
27 | C=CC(=O)Nc1cc(Nc2ncc(Cl)c(-c3c[nH]c4ccccc34)n2)c(OC)cc1N(C)CCN(C)C [Mutant EGFR inhibitor] (2.5 µM) | 0
28 | C[C@@H](c1ccc(-c2ccccc2)c(F)c1)c1cc(NC(=N)N2CCOCC2)on1 [Rimacalib] (10 µM) | 0
29 | Cn1nccc1Nc1nccc(-c2ccn([C@H](CO)c3ccc(Cl)c(F)c3)c(=O)c2)n1 [Ravoxertinib hydrochloride] (10 µM) | 0
30 | Oc1cc2c(cc1O)C(Cc1cccc3ccccc13)NCC2 (stereo not drawn) (10 µM) | 0
31 | O=C1N[C@@H](Cc2c[nH]c3ccccc23)C(=O)N2CCC[C@@H]12 [Brevianamide F] (10 µM) | 0
32 | CCS(=O)(=O)Nc1ccc2[nH]c(O)c(C(=Nc3ccc(CN4CCCCC4)cc3)c3ccccc3)c2c1 [Hesperadin] (2.5 µM) | 0
33 | O=C1NC(=O)/C(=C/c2ccc3nccnc3c2)S1 (10 µM) | 0
34 | CNc1nc(Nc2ccc(C(=O)N3CCOCC3)cc2OC)nc2[nH]cc(Cl)c12 (2.5 µM) | 0
35 | CC#CC(=O)N1CC[C@@H](n2c(=O)n(-c3ccc(Oc4ccccc4)cc3)c3c(N)ncnc32)C1 [Tirabrutinib] (10 µM) | 0
36 | CCc1c(C(=O)NNC(=O)C(O)c2cc(F)cc(F)c2)ccc(O)c1C (stereo not drawn) (10 µM) | 0
37 | CNC(=O)c1ccc(C)c(-n2c(C)cc(OCc3ccc(F)cc3F)c(Br)c2=O)c1 (10 µM) | 0
38 | O=C(NOCC(O)CO)c1cc(Br)c(F)c(F)c1Nc1ccc(I)cc1F (stereo not drawn) (2.5 µM) | 0
